Reference: PMC7339578, “Multiple circulating alkaloids and saponins from intravenous Kang-Ai injection inhibit human cytochrome P450 and UDP-glucuronosyltransferase isozymes: potential drug–drug interactions” (Chinese Medicine, 2020)

Assay: Extraction recoveries and matrix effects in rat plasma

Row | SMILES | Extraction recovery (concentration 80 nM) | Matrix effect (concentration 80 nM) | Extraction recovery (concentration 400 nM) | Matrix effect (concentration 400 nM) | Extraction recovery (concentration 1600 nM) | Matrix effect (concentration 1600 nM) | Extraction recovery (concentration 40 nM) | Matrix effect (concentration 40 nM) | Extraction recovery (concentration 200 nM) | Matrix effect (concentration 200 nM) | Extraction recovery (concentration 800 nM) | Matrix effect (concentration 800 nM) | Extraction recovery (concentration 20 nM) | Matrix effect (concentration 20 nM) | Extraction recovery (concentration 100 nM) | Matrix effect (concentration 100 nM)
1 | O=C1CCC[C@@H]2[C@H]3CCC[N+]4([O-])CCC[C@@H](CN12)[C@@H]34 (stereo partly drawn) [Compound A3, Oxymatrine] | 105.17±8.62% | 100.75±5.86% | 105.83±6.93% | 100.93±1.97% | 89.64±3.30% | 108.18±3.90% |  |  |  |  |  |  |  |  |  | 
2 | CC(C)=CCC[C@](C)(O[C@@H]1O[C@H](CO)[C@@H](O)[C@H](O)[C@H]1O)[C@H]1CC[C@]2(C)[C@@H]1[C@H](O)C[C@@H]1[C@@]3(C)CC[C@H](O)C(C)(C)[C@@H]3[C@@H](O[C@@H]3O[C@H](CO)[C@@H](O)[C@H](O)[C@H]3O[C@@H]3O[C@@H](C)[C@H](O)[C@@H](O)[C@H]3O)C[C@]12C [Compound C9, Ginsenoside Re] |  |  |  |  |  |  | 84.68±2.98% | 97.71±3.91% | 82.85±2.10% | 110.45±2.83% | 90.05±3.61% | 103.82±5.13% |  |  |  | 
3 | O=C1CCC[C@@H]2[C@H]3CCCN4CCC[C@@H](CN12)[C@@H]34 [Compound A1, Matrine] |  |  | 86.91±1.81% | 104.25±6.38% |  |  |  |  |  |  |  |  | 99.96±8.70% | 97.15±8.32% | 102.28±11.06% | 100.69±10.94%
4 | CC(C)=CCC[C@](C)(O[C@@H]1O[C@H](CO[C@@H]2O[C@H](CO)[C@@H](O)[C@H](O)[C@H]2O)[C@@H](O)[C@H](O)[C@H]1O)[C@H]1CC[C@]2(C)[C@@H]1[C@H](O)C[C@@H]1[C@@]3(C)CC[C@H](O[C@@H]4O[C@H](CO)[C@@H](O)[C@H](O)[C@H]4O[C@@H]4O[C@H](CO)[C@@H](O)[C@H](O)[C@H]4O)C(C)(C)[C@@H]3CC[C@]12C [Compound D5, Ginsenoside Rb1] |  |  | 90.85±7.16% | 105.21±11.86% |  |  |  |  |  |  |  |  | 96.18±14.17% | 97.22±8.04% | 89.29±3.21% | 99.16±11.65%
5 | O=C1C=CC[C@@H]2[C@H]3CCC[N+]4([O-])CCC[C@@H](CN12)[C@@H]34 (stereo partly drawn) [Compound A2, Oxysophocarpine] |  |  | 88.46±2.91% | 105.13±4.79% |  |  |  |  |  |  |  |  | 100.26±10.57% | 103.61±8.62% | 108.98±6.07% | 100.35±10.48%
6 | CC(C)=CCC[C@](C)(O)[C@H]1CC[C@]2(C)[C@@H]1[C@H](O)C[C@@H]1[C@@]3(C)CC[C@H](O)C(C)(C)[C@@H]3[C@@H](O[C@@H]3O[C@H](CO)[C@@H](O)[C@H](O)[C@H]3O)C[C@]12C [Compound C1, Ginsenoside Rh1] |  |  | 90.40±3.23% | 104.51±2.44% |  |  |  |  |  |  |  |  | 98.82±10.66% | 100.13±5.48% | 87.97±1.31% | 108.26±3.21%
7 | CC(C)=CCC[C@](C)(O[C@@H]1O[C@H](CO[C@@H]2O[C@@H](CO)[C@H](O)[C@H]2O)[C@@H](O)[C@H](O)[C@H]1O)[C@H]1CC[C@]2(C)[C@@H]1[C@H](O)C[C@@H]1[C@@]3(C)CC[C@H](O[C@@H]4O[C@H](CO)[C@@H](O)[C@H](O)[C@H]4O[C@@H]4O[C@H](CO)[C@@H](O)[C@H](O)[C@H]4O)C(C)(C)[C@@H]3CC[C@]12C [Compound D3, Ginsenoside Rc] |  |  | 87.64±6.22% | 100.09±4.57% |  |  |  |  |  |  |  |  | 88.57±7.91% | 103.80±13.18% | 102.68±2.46% | 98.95±12.51%
8 | CC(C)=CCC[C@](C)(O[C@@H]1O[C@H](CO)[C@@H](O)[C@H](O)[C@H]1O)[C@H]1CC[C@]2(C)[C@@H]1[C@H](O)C[C@@H]1[C@@]3(C)CC[C@H](O)C(C)(C)[C@@H]3[C@@H](O[C@@H]3O[C@H](CO)[C@@H](O)[C@H](O)[C@H]3O)C[C@]12C [Compound C6, Ginsenoside Rg1] |  |  |  |  |  |  | 98.42±7.75% | 92.06±6.88% | 86.28±6.89% | 94.22±8.55% | 92.14±11.01% | 98.43±9.35% |  |  |  | 
